Reference: PMC4200855
Results are given in words; binding and its absence hold for the method and conditions named. Binding seen in cells or lysates may run through a third protein. Some entries that bind do so weakly or less than the wild type.

Protein sequences, listed by entry. Tags and fused reporters are not part of them.
UniProt P08047: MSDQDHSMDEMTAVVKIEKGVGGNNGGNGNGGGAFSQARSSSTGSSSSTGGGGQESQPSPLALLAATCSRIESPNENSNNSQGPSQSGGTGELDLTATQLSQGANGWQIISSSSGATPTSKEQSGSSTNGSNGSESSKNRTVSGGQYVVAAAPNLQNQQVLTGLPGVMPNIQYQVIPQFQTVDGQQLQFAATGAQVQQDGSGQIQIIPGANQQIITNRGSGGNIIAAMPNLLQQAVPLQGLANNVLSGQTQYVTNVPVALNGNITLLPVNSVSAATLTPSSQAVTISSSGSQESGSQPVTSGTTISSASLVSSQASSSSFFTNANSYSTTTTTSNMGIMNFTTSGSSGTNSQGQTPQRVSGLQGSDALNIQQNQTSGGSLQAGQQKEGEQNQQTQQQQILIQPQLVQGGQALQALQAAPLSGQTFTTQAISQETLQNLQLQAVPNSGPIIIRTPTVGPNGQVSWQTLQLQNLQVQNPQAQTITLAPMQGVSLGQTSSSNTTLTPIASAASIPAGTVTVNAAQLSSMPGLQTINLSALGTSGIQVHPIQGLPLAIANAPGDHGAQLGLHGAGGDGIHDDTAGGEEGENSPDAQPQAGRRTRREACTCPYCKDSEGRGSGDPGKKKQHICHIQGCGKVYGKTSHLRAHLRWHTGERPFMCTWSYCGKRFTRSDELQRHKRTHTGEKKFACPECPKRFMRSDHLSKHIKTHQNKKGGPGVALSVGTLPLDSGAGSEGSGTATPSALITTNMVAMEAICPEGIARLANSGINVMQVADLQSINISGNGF
UniProt Q99814: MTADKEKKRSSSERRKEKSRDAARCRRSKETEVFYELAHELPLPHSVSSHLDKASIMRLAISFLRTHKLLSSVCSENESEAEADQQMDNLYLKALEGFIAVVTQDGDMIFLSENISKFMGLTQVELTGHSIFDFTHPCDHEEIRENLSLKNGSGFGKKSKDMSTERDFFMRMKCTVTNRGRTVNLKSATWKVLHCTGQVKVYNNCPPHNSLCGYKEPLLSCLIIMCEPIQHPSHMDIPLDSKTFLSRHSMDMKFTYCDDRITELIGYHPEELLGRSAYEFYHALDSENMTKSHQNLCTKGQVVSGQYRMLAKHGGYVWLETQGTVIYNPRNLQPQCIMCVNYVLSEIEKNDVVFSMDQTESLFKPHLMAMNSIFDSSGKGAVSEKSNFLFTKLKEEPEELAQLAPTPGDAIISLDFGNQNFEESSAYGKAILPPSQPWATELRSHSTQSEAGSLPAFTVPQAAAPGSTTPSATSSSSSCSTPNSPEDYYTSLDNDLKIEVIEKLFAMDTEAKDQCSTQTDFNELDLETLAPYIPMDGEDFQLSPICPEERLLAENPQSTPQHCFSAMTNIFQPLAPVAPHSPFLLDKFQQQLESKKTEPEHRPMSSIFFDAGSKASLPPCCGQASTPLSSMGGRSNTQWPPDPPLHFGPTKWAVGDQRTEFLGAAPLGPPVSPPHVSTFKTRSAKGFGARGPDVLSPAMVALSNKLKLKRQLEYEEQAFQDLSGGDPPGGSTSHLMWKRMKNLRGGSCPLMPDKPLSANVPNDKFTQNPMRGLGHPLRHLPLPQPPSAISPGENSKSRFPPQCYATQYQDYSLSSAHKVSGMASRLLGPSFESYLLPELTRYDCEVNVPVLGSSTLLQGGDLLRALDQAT

Biological target: specificity protein-1 (SP-1) (UniProt P08047)
Experiment: co-IP; lysates of transfected cells in HEPES buffer (20 mM HEPES pH 7.2, 50 mM NaCl, 0.5% Triton X-100, 1 mM NaF, 1 mM DTT) with protease inhibitors; mouse anti-Flag 4 h at 4 °C, protein A/G-agarose overnight at 4 °C; three washes; immunoblot

- binding: binds
Substance: endothelial pas domain protein-1 (EPAS-1) (from UniProt Q99814 1-870)
